Reference: the supplement of paper PMC10727501
This is one part of the list. Repeats in this data set agree poorly, so a single value says little.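 Free-swimming zebrafish larvae were assessed for O-bend response probability to dark flashes (naive: first five; training: remaining flashes across four 60-flash blocks; test: later 60-flash block) and for OMR turning toward alternating leftward/rightward LED motion. Six treated larvae were compared against sixty 0.1% DMSO controls; hits required |SSMD|≥2.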

System: Danio rerio larvae (5 dpf, TLF)
Test: Prob-Naive (SSMD vs DMSO vehicle); higher = higher than vehicle (e.g. higher dark-flash O-bend response probability, or better optomotor performance)
Settings: 10 µM; pre-incubation: 30-90 min

SMILES	Prob-Naive
O=C1NC(=O)C(c2ccccc2)(c2ccccc2)N1 [Phenytoin]	-0.271
CCn1cc(C(=O)O)c(=O)c2cc(F)c(N3CCNCC3)nc21 [Enoxacin]	-0.266
OC(Cn1cncn1)(Cn1cncn1)c1ccc(F)cc1F [Fluconazole]	0.549
CC(C)NCC(O)COc1cccc2ccccc12.Cl (centres undefined) [Propranolol HCl]	0
Cc1ccc(S(=O)(=O)Cc2nc(-c3ccc(C(=O)NCc4cccnc4)cc3)oc2C)cc1	-0.252
CC[C@H]1OC(=O)[C@H](C)[C@H](O[C@@H]2C[C@@](C)(OC)[C@@H](O)[C@H](C)O2)[C@H](C)[C@@H](O[C@@H]2O[C@H](C)C[C@H](N(C)C)[C@@H]2O)[C@](C)(OC)C[C@@H](C)C(=O)[C@H](C)[C@@H](O)[C@]1(C)O [Clarithromycin]	-0.471
Nc1nc(N)c(N=O)c(OCC2CCCCC2)n1	0.0457
c1ccc(NCc2ccc(CNc3ccccn3)cc2)nc1	0.134
NC(=O)c1ccc(I)c([N+](=O)[O-])c1 [Iniparib (BSI-201)]	-0.133
CC1(C)O[C@@H]2C[C@H]3[C@@H]4CCC5=CC(=O)C=C[C@]5(C)[C@@H]4[C@H](O)C[C@]3(C)[C@@]2(C(=O)CO)O1 [Desonide]	-0.0365
O=c1oc2cc(O)ccc2s1 [Tioxolone]	-0.201
O=P(O)(O)C(O)(Cc1cccnc1)P(=O)(O)O [Risedronic acid (Actonel)]	0.131

System: Danio rerio larvae (5 dpf, TLF)
Test: Prob-Train (SSMD vs DMSO vehicle); higher = higher than vehicle (e.g. higher dark-flash O-bend response probability, or better optomotor performance)
Settings: 10 µM; pre-incubation: 30-90 min

SMILES	Prob-Train
COc1ccc2cc1Oc1ccc(cc1)C[C@H]1c3cc(c(OC)cc3CCN1C)Oc1c(OC)c(OC)cc3c1[C@@H](C2)N(C)CC3 [Tetrandrine]	-0.314
CCCCCCCN(CC)CCCC(O)c1ccc(NS(C)(=O)=O)cc1.CCCCCCCN(CC)CCCC(O)c1ccc(NS(C)(=O)=O)cc1.O=C(O)/C=C/C(=O)O (centres undefined) [Ibutilide Fumarate]	-0.0863
CCCc1cc(C(N)=S)ccn1 [Protionamide]	-0.167
Cc1cc(Nc2ncnc3ccc(-c4ccc(CNCCS(C)(=O)=O)o4)cc23)ccc1Oc1ccn2ncnc2c1 [HER2-Inhibitor-1]	0.229
C1(C[C@@H]2C[C@@H](C[C@@H]1N2C)OC(C3=CC=CC=C3)C4=CC=CC=C4).CS(=O)(=O)O (some centres undefined) [Benztropine mesylate]	0.51
CC(=O)Oc1cc(C(F)(F)F)ccc1C(=O)O [Triflusal]	-0.424
Nc1nc(NCCNc2ncc(-n3ccnc3)c(-c3ccc(Cl)cc3Cl)n2)ccc1[N+](=O)[O-]	-0.56
COc1cc(Nc2nc3ccccc3nc2NS(=O)(=O)c2ccc(NC(=O)c3ccc(C)c(OC)c3)cc2)cc(OC)c1	0.394
COc1ccc(S(=O)(=O)Nc2cccnc2Nc2ccc(O)cc2)cc1	-0.219
CC[C@]1(O)C[C@@H]2C[N@](CCc3c([nH]c4ccccc34)[C@@](C(=O)OC)(c3cc4c(cc3OC)N(C)[C@@H]3C45CCN4CC=C[C@](CC)([C@H]45)[C@H](OC(C)=O)[C@]3(O)C(=O)OC)C2)C1 (some centres undefined) [Vinblastine]	0.00612
Nc1nc(=O)c2ncn(CCC(CO)CO)c2[nH]1 [Penciclovir]	0.23
O=C1c2c(O)cc(O)cc2O[C@H](c2ccc(O)c(O)c2)[C@H]1O [Taxifolin (Dihydroquercetin)]	-0.195
C#C[C@@]1(O)CC[C@H]2[C@@H]3CCc4cc(OC)ccc4[C@@H]3CC[C@@]21C [Mestranol]	-2.59
Cc1[nH]c(/C=C2\C(=O)Nc3ccc(S(=O)(=O)Cc4c(Cl)cccc4Cl)cc32)c(C)c1C(=O)N1CCC[C@@H]1CN1CCCC1	0.0921
Cl.O=C(OCC(O)CO)c1ccccc1Nc1ccnc2cc(Cl)ccc12 (centres undefined) [Glafenine HCl]	-0.915
Cl.O=C1NCC2(CCN(CCc3ccccc3)CC2)O1 [Fenspiride HCl]	-0.889
O=C(N/N=C/c1ccc([N+](=O)[O-])o1)c1ccc(O)cc1 [Nifuroxazide]	0.241

Quoted at random: 2 compounds from above, in no set order.
SMILES	Prob-Train
C1(C[C@@H]2C[C@@H](C[C@@H]1N2C)OC(C3=CC=CC=C3)C4=CC=CC=C4).CS(=O)(=O)O (some centres undefined) [Benztropine mesylate]	0.51
Cl.O=C(OCC(O)CO)c1ccccc1Nc1ccnc2cc(Cl)ccc12 (centres undefined) [Glafenine HCl]	-0.915
